Experimental data taken from publication PMC6863955 (Frontiers in Chemistry, 2019).
HELM strings list residues between dots; [ac] is acetyl, [am] amide, other brackets name non-standard units.

Experiment: peptide made by a vendor
Settings: whole synthesis, RP-HPLC

Substance: PEPTIDE1{[Chex].R.P.D.K.P.R.P.Y.L.P.R.P.R.P.P.R.P.V.R.[am]}$$$$V2.0
- purity (crude or final not stated): 97.3%
